Structures can show the parent of a compound that is named as a salt. Some results were stated once for a whole list of compounds, not compound by compound.
Biological target: Asp-2 (Homo sapiens, UniProt P56817)
Assay: Asp-2 inhibitory assay
Type: biochemical
Details: FAM-[SEVNLDAEFK]-TAMRA substrate, pH 4.5, 1 h room temperature; read-out: inhibition in the Asp-2 inhibitory assay
Experimental: (I) Asp-2 Inhibitory Assay
For each compound being assayed, in a 384 well plate, is added:
This is prepared by diluting 2 ml of a 2 mM DMSO solution of the substrate into 400 ml of buffer (100 mM Sodium acetate pH=4.5, 1 l Milli-Q water, 0.06% Triton X-100 (0.5 ml/l), pH adjusted to 4.5 using glacial acetic acid).
c) 10 μl enzyme solution. This is prepared by diluting 16 ml of a 500 nM enzyme solution into 384 ml of buffer (prepared as above).
Blank wells (enzyme solution replaced by buffer) are included as controls on each plate.

Chains of the proteins cited; added tags and fusions are not shown. Residues count along the entry.
UniProt P56817, 46-501: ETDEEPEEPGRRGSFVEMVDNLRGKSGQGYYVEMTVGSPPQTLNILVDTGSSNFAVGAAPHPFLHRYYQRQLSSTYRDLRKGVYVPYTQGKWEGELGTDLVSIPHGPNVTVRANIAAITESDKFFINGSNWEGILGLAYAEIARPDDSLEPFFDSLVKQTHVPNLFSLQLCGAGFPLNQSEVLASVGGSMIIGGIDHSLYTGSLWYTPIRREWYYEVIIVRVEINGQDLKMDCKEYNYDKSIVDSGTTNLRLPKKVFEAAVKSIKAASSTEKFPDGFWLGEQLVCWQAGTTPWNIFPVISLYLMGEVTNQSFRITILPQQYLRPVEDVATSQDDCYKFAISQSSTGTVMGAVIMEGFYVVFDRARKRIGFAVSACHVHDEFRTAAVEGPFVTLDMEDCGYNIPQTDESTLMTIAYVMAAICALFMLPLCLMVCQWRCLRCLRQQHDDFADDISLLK

With `CCc1cn2c3c(cc(C(=O)N[C@@H](Cc4ccccc4)[C@H](O)CNC4CCC(F)(F)CC4)cc13)N(C)S(=O)(=O)CC2` [Example E106, N-[(1S,2R)-3-[(4,4-Difluorocyclohexyl)amino]-2-hydroxy-1-(phenylmethyl)propyl]-7-ethyl-1-methyl-3,4-dihydro-1H-[1,2,5]thiadiazepino[3,4,5-hi]indole-9-carboxamide 2,2-dioxide formate salt] as the compound, how does the IC50 read?
The IC50 was under 10 µM.

With `CC(C)NC[C@@H](O)[C@H](Cc1ccccc1)NC(=O)c1cc2c3c(c1)c(C(C)C)cn3CCS(=O)(=O)N2C` [Example E22, N-[(1S,2R)-2-Hydroxy-3-[(1-methylethyl)amino]-1-(phenylmethyl)propyl]-1-methyl-7-(1-methylethyl)-3,4-dihydro-1H-[1,2,5]thiadiazepino[3,4,5-hi]indole-9-carboxamide 2,2-dioxide formate salt] as the compound, how does the IC50 read?
Its IC50 is under 10 µM.

For `CCc1cn2c3c(cc(C(=O)N[C@@H](Cc4ccccc4)[C@H](O)CNCc4cccc(C(F)(F)F)c4)cc13)N(Cc1ccccc1)S(=O)(=O)CC2` [Example E12, 7-Ethyl-N-[(1S,2R)-2-hydroxy-1-(phenylmethyl-3-({[3-(trifluoromethyl)phenyl]methyl}amino)propyl]-1-(phenylmethyl)-3,4-dihydro-1H-[1,2,5]thiadiazepino[3,4,5-hi]indole-9-carboxamide 2,2-dioxide formate salt], which IC50 is on record?
The IC50 was under 10 µM.

Which IC50 does the source give for `CCc1cn2c3c(cc(C(=O)N[C@@H](Cc4cccc(Cl)c4)[C@H](O)CNC4CCCCC4)cc13)N(C)S(=O)(=O)CC2` [Example E32, N-[(1S,2R)-1-[(3-Chlorophenyl)methyl]-3-(cyclohexylamino)-2-hydroxypropyl]-7-ethyl-1-methyl-3,4-dihydro-1H-[1,2,5]thiadiazepino[3,4,5-hi]indole-9-carboxamide 2,2-dioxide formate salt] here?
The IC50 was under 10 µM.

How did the IC50 turn out when `CCc1cn2c3c(cc(C(=O)N[C@@H](Cc4ccccc4)[C@H](O)CNCc4cccc(C(F)(F)F)c4)cc13)N(CC(=O)O)S(=O)(=O)CC2` [Example E95, [7-Ethyl-9-({[(1S,2R)-2-hydroxy-1-(phenylmethyl)-3-({[3-(trifluoromethyl)phenyl]methyl}amino)propyl]amino}carbonyl)-2,2-dioxido-3,4-dihydro-1H-[1,2,5]thiadiazepino[3,4,5-hi]indol-1-yl]acetic acid] was run?
The IC50 was under 10 µM.

`CCc1cn2c3c(cc(C(=O)N[C@@H](Cc4cc(F)cc(F)c4)[C@H](O)CNC4CCOCC4)cc13)N(C)S(=O)(=O)CC2` [Example E52, N-[(1S,2R)-1-[(3,5-Difluorophenyl)methyl]-2-hydroxy-3-(tetrahydro-2H-pyran-4-ylamino)propyl]-7-ethyl-1-methyl-3,4-dihydro-1H-[1,2,5]thiadiazepino[3,4,5-hi]indole-9-carboxamide 2,2-dioxide formate salt] was tested. Which IC50 did it give?
The IC50 was under 10 µM.

Which IC50 does the source give for `CCc1cn2c3c(cc(C(=O)N[C@@H](Cc4ccccc4)[C@H](O)CNCc4cnc(C)cn4)cc13)N(C)S(=O)(=O)CC2` [Example E103, 7-Ethyl-N-[(1S,2R)-2-hydroxy-3-{[(5-methyl-2-pyrazinyl)methyl]amino}-1-(phenylmethyl)propyl]-1-methyl-3,4-dihydro-1H-[1,2,5]thiadiazepino[3,4,5-hi]indole-9-carboxamide 2,2-dioxide formate salt] here?
The IC50 was under 10 µM.

Which IC50 does the source give for `CCc1cn2c3c(cc(C(=O)N[C@@H](Cc4ccccc4)[C@H](O)CNCC(C)C)cc13)N(C)S(=O)(=O)CC2` [Example E59, 7-Ethyl-N-[(1S,2R)-2-hydroxy-3-[(2-methylpropyl)amino]-1-(phenylmethyl)propyl]-1-methyl-3,4-dihydro-1H-[1,2,5]thiadiazepino[3,4,5-hi]indole-9-carboxamide 2,2-dioxide] here?
Its IC50 is under 10 µM.

For `CCc1cn2c3c(cc(C(=O)N[C@@H](Cc4ccccc4)[C@H](O)CNCc4cccc(C(F)(F)F)c4)cc13)N(C)S(=O)(=O)C(C)C2` (stereo partly drawn) [Example E6, 7-Ethyl-N-[(1S,2R)-2-hydroxy-1-(phenylmethyl)-3-({[3-(trifluoromethyl)phenyl]methyl}amino)propyl]-1,3-dimethyl-3,4-dihydro-1H-[1,2,5]thiadiazepino [3,4,5-hi]indole-9-carboxamide 2,2-dioxide formate salt], which IC50 is on record?
Its IC50 is under 10 µM.

For `CCc1cn2c3c(cc(C(=O)N[C@@H](Cc4ccccc4)[C@H](O)CNCc4cccc(-c5ccccn5)n4)cc13)N(C)S(=O)(=O)CC2` [Example E98, N-[(1S,2R)-3-[(2,2′-Bipyridin-6-ylmethyl)amino]-2-hydroxy-1-(phenylmethyl)propyl]-7-ethyl-1-methyl-3,4-dihydro-1H-[1,2,5]thiadiazepino[3,4,5-hi]indole-9-carboxamide 2,2-dioxide formate salt], which IC50 is on record?
Its IC50 is under 10 µM.

`CCCc1cn2c3c(cc(C(=O)N[C@@H](Cc4ccccc4)[C@H](O)CNCc4cnn(CC)c4)cc13)N(CC)S(=O)(=O)CC2.O=CO` [Example E51, 1-Ethyl-N-[(1S,2R)-3-{[(1-ethyl-1H-pyrazol-4-yl)methyl]amino}-2-hydroxy-1-(phenylmethyl)propyl]-7-propyl-3,4-dihydro-1H-[1,2,5]thiadiazepino[3,4,5-hi]indole-9-carboxamide 2,2-dioxide formate salt] was tested. Which IC50 did it give?
The IC50 was under 10 µM.

How did the IC50 turn out when `CCc1cn2c3c(cc(C(=O)N[C@@H](Cc4ccccc4)[C@H](O)CNCc4cnc5cc(C)ccc5n4)cc13)N(C)S(=O)(=O)CC2` [Example E99, 7-Ethyl-N-[(1S,2R)-2-hydroxy-3-{[(6-methyl-2-quinoxalinyl)methyl]amino}-1-(phenylmethyl)propyl]-1-methyl-3,4-dihydro-1H-[1,2,5]thiadiazepino[3,4,5-hi]indole-9-carboxamide 2,2-dioxide formate salt] was run?
Its IC50 is under 10 µM.

With `CCc1cn2c3c(cc(C(=O)N[C@@H](Cc4ccccc4)[C@H](O)CNCc4ccccc4C)cc13)N(C)S(=O)(=O)CC2` [Example E69, 7-Ethyl-N-[(1S,2R)-2-hydroxy-3-{[(2-methylphenyl)methyl]amino}-1-(phenylmethyl)propyl]-1-methyl-3,4-dihydro-1H-[1,2,5]thiadiazepino[3,4,5-hi]indole-9-carboxamide 2,2-dioxide formate salt] as the compound, how does the IC50 read?
Its IC50 is under 10 µM.

`CCc1cn2c3c(cc(C(=O)N[C@@H](Cc4ccccc4)[C@H](O)CNCc4cccc(C)c4)cc13)N(C)S(=O)(=O)CC2.O=CO` [Example E70, 7-Ethyl-N-[(1S,2R)-2-hydroxy-3-{[(3-methylphenyl)methyl]amino}-1-(phenylmethyl)propyl]-1-methyl-3,4-dihydro-1H-[1,2,5]thiadiazepino[3,4,5-hi]indole-9-carboxamide 2,2-dioxide formate salt] was tested. Which IC50 did it give?
Its IC50 is under 10 µM.

With `CCc1cn2c3c(cc(C(=O)N[C@@H](Cc4ccccc4)[C@H](O)CNCC(F)(F)C(F)(F)F)cc13)N(C)S(=O)(=O)CC2` [Example E29, 7-Ethyl-N-[(1S,2R)-2-hydroxy-3-[(2,2,3,3,3-pentafluoropropyl)amino]-1-(phenylmethyl)propyl]-1-methyl-3,4-dihydro-1H-[1,2,5]thiadiazepino[3,4,5-hi]indole-9-carboxamide 2,2-dioxide formate salt] as the compound, how does the IC50 read?
Its IC50 is under 10 µM.

`CCc1cn2c3c(cc(C(=O)N[C@@H](Cc4ccccc4)[C@H](O)CNC(C)(C)c4cccc(OC)c4)cc13)N(C)S(=O)(=O)CC2` [Example E14, 7-Ethyl-N-[(1S,2R)-2-hydroxy-3-({1-methyl-1-[3-(methyloxy)phenyl]ethyl}amino)-1-(phenylmethyl)propyl]-1-methyl-3,4-dihydro-1H-[1,2,5]thiadiazepino[3,4,5-hi]indole-9-carboxamide 2,2-dioxide formate salt] was tested. Which IC50 did it give?
Its IC50 is under 10 µM.

Source: US20060229302A1, “Tricyclic indole derivatives and their use in the treatment of alzheimer's disease” (priority 2003, published 2006)
